Paper doi:10.1101/2020.11.10.376210
Results are given in words; binding and its absence hold for the method and conditions named. Binding seen in cells or lysates may run through a third protein. Binding can be weak; no strength is given. For some assays here: Where a sequence is shown, tags or fusion partners need not be part of it.

By UniProt entry, the sequences of proteins in these tests, tags left out. Where a name states a change or a piece, a line headed by the entry shows the natural chain unless it says otherwise.
UniProt Q0KHY3: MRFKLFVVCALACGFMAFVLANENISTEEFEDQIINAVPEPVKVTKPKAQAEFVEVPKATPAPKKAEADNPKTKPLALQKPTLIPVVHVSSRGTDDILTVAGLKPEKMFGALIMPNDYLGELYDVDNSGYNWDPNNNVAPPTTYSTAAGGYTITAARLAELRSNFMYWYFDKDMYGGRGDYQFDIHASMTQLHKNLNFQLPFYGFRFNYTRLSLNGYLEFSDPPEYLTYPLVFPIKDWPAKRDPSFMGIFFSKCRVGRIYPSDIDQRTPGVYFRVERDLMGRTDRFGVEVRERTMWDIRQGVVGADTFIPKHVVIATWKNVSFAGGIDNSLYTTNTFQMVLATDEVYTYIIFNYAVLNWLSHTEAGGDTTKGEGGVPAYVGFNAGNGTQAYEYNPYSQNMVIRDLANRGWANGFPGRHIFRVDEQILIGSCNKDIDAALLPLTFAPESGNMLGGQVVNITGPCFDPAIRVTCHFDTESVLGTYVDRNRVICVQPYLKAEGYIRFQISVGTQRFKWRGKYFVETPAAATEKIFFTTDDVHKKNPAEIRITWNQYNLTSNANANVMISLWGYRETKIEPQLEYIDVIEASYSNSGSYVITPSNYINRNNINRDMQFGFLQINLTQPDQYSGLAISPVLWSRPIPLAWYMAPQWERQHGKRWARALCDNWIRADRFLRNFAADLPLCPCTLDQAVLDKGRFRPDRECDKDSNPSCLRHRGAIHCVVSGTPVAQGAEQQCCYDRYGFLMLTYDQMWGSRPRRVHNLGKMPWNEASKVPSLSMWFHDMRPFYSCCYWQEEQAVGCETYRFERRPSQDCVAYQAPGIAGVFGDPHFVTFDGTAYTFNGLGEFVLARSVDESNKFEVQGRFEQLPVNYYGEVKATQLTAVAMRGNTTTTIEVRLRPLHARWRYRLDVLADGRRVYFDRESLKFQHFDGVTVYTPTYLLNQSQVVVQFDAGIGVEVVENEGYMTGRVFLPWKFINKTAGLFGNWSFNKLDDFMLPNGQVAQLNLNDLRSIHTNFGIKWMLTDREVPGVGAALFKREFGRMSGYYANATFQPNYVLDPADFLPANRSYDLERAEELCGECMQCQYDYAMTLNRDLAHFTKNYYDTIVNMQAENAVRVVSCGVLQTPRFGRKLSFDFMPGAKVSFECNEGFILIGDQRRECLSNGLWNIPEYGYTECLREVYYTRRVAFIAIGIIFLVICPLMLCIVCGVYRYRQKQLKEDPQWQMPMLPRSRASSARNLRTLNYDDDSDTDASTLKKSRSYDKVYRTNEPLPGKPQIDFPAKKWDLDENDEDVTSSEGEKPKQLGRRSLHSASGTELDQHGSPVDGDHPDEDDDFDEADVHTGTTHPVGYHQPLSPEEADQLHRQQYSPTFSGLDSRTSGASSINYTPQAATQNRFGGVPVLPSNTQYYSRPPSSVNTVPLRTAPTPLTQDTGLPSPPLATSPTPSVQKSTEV

B1: Snakeskin (protein, UniProt Q9VW87 1-162)
chain: MVSVETVGSIFIKALKLIINLVIIFLYRWGDGGEFLGIGGTWNLNEEKSADAEIVASGVMVGFLIYTGCHTIAFAFGTTKHKGELCDTIMNVVGCIMWIAVGGVALHYWKGYMSDEGFLYVNSERQVGIAMGSLCVIEGALYLLDTVLACIHYSKGDTDYTQ

Legend:
Test in all cases: co-IP
[1] = biological target: T1, Snakeskin (Drosophila (endogenous in embryos)) (UniProt Q9VW87)
T1 sequence: B1 chain

[2] = biological target: T2, enhanced GFP (EGFP)-Tsp2A (Drosophila) (UniProt O46101)
T2 sequence: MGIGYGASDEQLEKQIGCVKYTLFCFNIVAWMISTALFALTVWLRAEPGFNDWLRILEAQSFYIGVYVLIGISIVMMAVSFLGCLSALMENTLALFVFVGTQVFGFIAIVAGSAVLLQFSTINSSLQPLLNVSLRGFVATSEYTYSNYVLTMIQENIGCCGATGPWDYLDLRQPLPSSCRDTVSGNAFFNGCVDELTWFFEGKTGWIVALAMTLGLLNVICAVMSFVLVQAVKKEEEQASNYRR

[3] = biological target: Hoka (Drosophila (endogenous in embryos))
[4] = biological target: Mesh (Drosophila (endogenous in embryos)) (UniProt Q0KHY3)

Molecule	binding [1]	binding [2]	binding [3]	binding [4]
Hoka (Drosophila (endogenous in embryos))	binds	binds	–	–
Mesh (from UniProt Q0KHY3)	binds	–	–	–
B1	–	–	binds	binds
